The test addresses T1, soluble, recombinant, human GPC2 (fluorescently labelled) (human) (UniProt Q8N158).
T1 sequence (fluorescently labelled, looked up): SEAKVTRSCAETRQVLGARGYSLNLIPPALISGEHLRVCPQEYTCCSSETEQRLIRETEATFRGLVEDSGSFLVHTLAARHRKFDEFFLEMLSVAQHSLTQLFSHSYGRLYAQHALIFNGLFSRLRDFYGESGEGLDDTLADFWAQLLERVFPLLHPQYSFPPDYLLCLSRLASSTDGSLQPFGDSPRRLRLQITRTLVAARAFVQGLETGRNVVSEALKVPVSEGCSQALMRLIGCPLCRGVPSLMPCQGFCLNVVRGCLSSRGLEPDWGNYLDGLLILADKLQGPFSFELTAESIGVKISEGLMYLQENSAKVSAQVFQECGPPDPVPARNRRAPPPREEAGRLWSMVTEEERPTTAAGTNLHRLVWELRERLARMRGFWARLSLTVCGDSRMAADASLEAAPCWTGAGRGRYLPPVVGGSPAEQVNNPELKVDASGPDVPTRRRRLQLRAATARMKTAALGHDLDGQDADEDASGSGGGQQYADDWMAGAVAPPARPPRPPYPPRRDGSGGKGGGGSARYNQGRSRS
The experiment in a line: flow cytometry of CAR T-cells stained with fluorescently labelled soluble recombinant human GPC2.

Protein sequences, listed by entry. Tags and fused reporters are not part of them. Lines headed by an entry give the natural chain unless they say otherwise; changes in a name come on top.
UniProt P01732: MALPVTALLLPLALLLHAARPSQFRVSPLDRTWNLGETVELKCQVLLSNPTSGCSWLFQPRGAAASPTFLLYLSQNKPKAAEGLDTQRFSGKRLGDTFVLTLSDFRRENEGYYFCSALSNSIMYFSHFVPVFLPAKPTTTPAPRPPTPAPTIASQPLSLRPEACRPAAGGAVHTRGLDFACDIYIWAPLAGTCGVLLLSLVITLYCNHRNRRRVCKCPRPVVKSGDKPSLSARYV

These are yes or no findings as the source states them, for the method shown. Some entries that bind do so weakly or less than the wild type.

As to “GPC2 CAR construct with the GPC2.D3 scFv in variable heavy chain-linker-variable light chain orientation, CD8a hinge and transmembrane domain, 41BBz signaling domain (on primary human T-cells) (from UniProt P01732 138-206; Q07011 214-255; P20963 52-163)”, the binding result is reported as “binds”. For “GPC2 CAR construct with the GPC2.D4 scFv in variable heavy chain-linker-variable light chain orientation, CD8a hinge and transmembrane domain, 41BBz signaling domain (on primary human T-cells) (from UniProt P01732 138-206; Q07011 214-255; P20963 52-163)”, the binding result is given as “binds”.

(Values after patent publication US20220257653A1.)
